The target in this assay is T1, Pleckstrin homology (PH) domain leucine-rich repeat protein phosphatase 2 (PHLPP2) (mouse (endogenous in primary hepatocytes)) (UniProt Q8BXA7).
T1 sequence: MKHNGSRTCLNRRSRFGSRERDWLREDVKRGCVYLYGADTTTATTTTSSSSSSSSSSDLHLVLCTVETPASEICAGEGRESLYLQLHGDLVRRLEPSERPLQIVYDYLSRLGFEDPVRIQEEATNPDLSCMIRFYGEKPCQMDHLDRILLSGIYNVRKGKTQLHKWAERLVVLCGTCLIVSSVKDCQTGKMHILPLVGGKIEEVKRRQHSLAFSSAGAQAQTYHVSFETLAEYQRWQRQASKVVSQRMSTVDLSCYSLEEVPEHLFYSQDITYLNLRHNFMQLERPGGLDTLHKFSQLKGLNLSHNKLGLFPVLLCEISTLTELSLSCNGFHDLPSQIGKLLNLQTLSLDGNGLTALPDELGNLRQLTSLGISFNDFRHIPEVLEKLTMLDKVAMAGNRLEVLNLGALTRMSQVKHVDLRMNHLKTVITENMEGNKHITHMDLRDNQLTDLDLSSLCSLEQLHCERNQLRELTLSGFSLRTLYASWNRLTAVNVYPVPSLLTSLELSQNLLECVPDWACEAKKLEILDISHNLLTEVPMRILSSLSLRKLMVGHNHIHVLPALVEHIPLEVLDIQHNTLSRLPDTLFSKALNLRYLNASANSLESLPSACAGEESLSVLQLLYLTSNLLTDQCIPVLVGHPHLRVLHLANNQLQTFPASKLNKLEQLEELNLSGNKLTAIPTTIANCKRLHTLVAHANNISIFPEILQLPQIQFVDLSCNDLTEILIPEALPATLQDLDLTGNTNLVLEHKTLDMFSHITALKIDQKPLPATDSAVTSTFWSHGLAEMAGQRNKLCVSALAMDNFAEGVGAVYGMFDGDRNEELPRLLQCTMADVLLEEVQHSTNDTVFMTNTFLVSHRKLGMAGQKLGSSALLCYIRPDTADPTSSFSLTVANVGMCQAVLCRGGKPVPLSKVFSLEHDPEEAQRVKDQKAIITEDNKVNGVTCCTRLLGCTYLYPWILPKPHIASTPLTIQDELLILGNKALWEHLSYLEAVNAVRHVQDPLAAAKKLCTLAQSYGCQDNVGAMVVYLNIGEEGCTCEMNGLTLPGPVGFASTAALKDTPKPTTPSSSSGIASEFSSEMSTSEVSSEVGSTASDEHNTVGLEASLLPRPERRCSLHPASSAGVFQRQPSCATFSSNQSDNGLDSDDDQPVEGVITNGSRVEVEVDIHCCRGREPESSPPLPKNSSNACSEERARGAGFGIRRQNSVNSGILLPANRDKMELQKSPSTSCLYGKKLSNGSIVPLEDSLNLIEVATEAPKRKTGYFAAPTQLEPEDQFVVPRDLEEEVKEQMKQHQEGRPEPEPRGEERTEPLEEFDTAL
The assay is described as follows: co-IP; anti-PHLPP2 immunoprecipitation from primary hepatocytes and hepatoma cells transduced with Raptor or GFP adenovirus, with or without MG-132.

No constants are given. Whether binding was seen depends on the method and setting. Binding seen in cells or lysates may run through a third protein. Some results given as binding are weak or reduced against the parent protein; the word gives no strength.

B1: β-TrCP (beta-transducin repeat-containing protein) (protein, UniProt Q3ULA2 1-605)
chain: MDPAEAVLQEKALKFMCSMPRSLWLGCSSLADSMPSLRCLYNPGTGALTAFQNSSEREDCNNGEPPRKIIPEKNSLRQTYNSCARLCINQETVCLTSTAMKTENCVAKAKLANGTSSMIVPKQRKLSASYEKEKELCVKYFEQWSESDQVEFVEHLISQMCHYQHGHINSYLKPMLQRDFITALPARGLDHIAENILSYLDAKSLCAAELVCKEWYRVTSDGMLWKKLIERMVRTDSLWRGLAERRGWGQYLFKNKPPDENAPPNSFYRALYPKIIQDIETIESNWRCGRHSLQRIHCRSETSKGVYCLQYDDQKIVSGLRDNTIKIWDKSTLECKRILTGHTGSVLCLQYDERVIITGSSDSTVRVWDVNAGEMLNTLIHHCEAVLHLRFNNGMMVTCSKDRSIAVWDMASPTDITLRRVLVGHRAAVNVVDFDDKYIVSASGDRTIKVWNTSTCEFVRTLNGHKRGIACLQYRDRLVVSGSSDNTIRLWDIECGACLRVLEGHEELVRCIRFDNKRIVSGAYDGKIKVWDLMAALDPRAPAGTLCLRTLVEHSGRVFRLQFDEFQIVSSSHDDTILIWDFLNDPAAHAEPPRSPSRTYTYISR
On to B1, for which the binding entry is “binds”.
